Data reported in PubChem BioAssay AID493014 (National Center for Advancing Translational Sciences (NCATS), 2011).
The campaign covered roughly 340,000 compounds. About 170 (0.05%) were called active. Inconclusive results, whose numbers are uncertain, are shown with a selection of clear calls. Calls follow the shape of the dose curve; as a rule, active = well fitted inhibition curve with a large enough effect in the signal ratio, with a control signal flat (not every such curve was filed as active); inconclusive = small, poorly fitted or top-dose-only effect, or effect the other way, or a change in a side signal; inactive = flat fitted curve, though single readings scatter; the % refers to the signal ratio. A potency beside an inconclusive call is a rough fit, not a confirmed value.
Potency is read from the fitted curve at half-maximal effect.

Assay: qHTS Assay to Find Inhibitors of Chronic Active B-Cell Receptor Signaling;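 as to activity change, negative = inhibition: plate controls were basal doxycycline-induced cells for no effect and cells given 10 µM MG132 for full effect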
Settings: ABC-DLBCL IkBa-CBG/CBR reporter, luminescence ratio (green luciferase fused to IkBa over red control in TMD8 lymphoma cells), 4 h; activity change, negative = inhibition: at 46.1 µM (top of the series) unless noted
How it was run: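 TMD8 ABC-DLBCL cells carrying doxycycline-inducible green luciferase fused to IkappaBalpha plus unfused red luciferase were exposed to compounds (up to 46 uM) for 4 hrs at 37C. Activity came from the overlap-corrected green/red luminescence ratio.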
In the case of `O=C(Nc1nnc(C2CC2)s1)C1COc2ccccc2O1` (stereo unspecified), the Potency is reported as inconclusive: 25.1 µM [falling, single point].
With `Cc1cccc(-n2nnnc2SCC(=O)c2cc(C)n(Cc3ccco3)c2C)c1` the activity change, negative = inhibition was inconclusive: -0.833%.
For `CCn1c(-c2ccc(F)cc2)n[nH]c1=S`, the “activity change, negative = inhibition” value was inactive: -9.99%.
In the case of `COc1ccc(N(C(C)C(=O)NC2CCCCCC2)S(C)(=O)=O)cc1` (stereo unspecified), the Potency is reported as inconclusive: 32.6 µM [falling, partial curve, poor fit].
In the case of `CCc1ccc(CN2CCC(Oc3ccc(C(=O)N4CCCCC4)cc3)CC2)cc1`, the “activity change, negative = inhibition” value is reported as inactive: -4.89%.
For `O=C(NC(=S)NN1CCCCC1c1cccnc1)c1ccc(Br)cc1` (stereo unspecified), the “activity change, negative = inhibition” value was inactive: -3.69%.
With `Cc1ccc(C(OCCN(C)C)c2cccc(C(F)(F)F)c2)cc1` (stereo unspecified) the activity change, negative = inhibition was inconclusive: -10.4%.
In the case of `O=C1NC(CCc2ccccc2)C(=O)N1CCOc1ccccc1` (stereo unspecified), the activity change, negative = inhibition is reported as inconclusive: 9.56%.
With `CNCCCOc1ccc(Cl)cc1C(C)(C)C` the Potency was inconclusive: 17.8 µM [falling, single point].
In the case of `O=C(Nc1cccc(F)c1)c1cc(S(=O)(=O)N2CCOCC2)ccc1N1CCCC1`, the activity change, negative = inhibition is reported as inconclusive: -2.58%.
For `CNC(=O)c1ccsc1NC(=O)c1ccc2c(c1)CCCC2`, the “activity change, negative = inhibition” value was inactive: 9.14%.
In the case of `CCCCc1ccc(NC(=S)N2CCCC(C)C2)cc1` (stereo unspecified), the “activity change, negative = inhibition” value is reported as inactive: -3.39%.
In the case of `COc1ccc(CN2CCN(C(=O)c3cccs3)CC2)cc1Br`, the activity change, negative = inhibition is reported as inconclusive: -0.579%.
For `O=C(CCN1CCOCC1)NNC(=S)NC(=O)c1ccc(Br)cc1`, the Potency was inconclusive: 35.5 µM [falling, single point].
In the case of `CCCNc1nc2c(c(=O)n(C)c(=O)n2C)n1Cc1ccc(F)cc1`, the activity change, negative = inhibition is reported as inconclusive: 8.52%.
With `O=C(Nc1ccc(N2CCN(C(=O)c3ccco3)CC2)cc1)c1ccccc1Br` the activity change, negative = inhibition was inconclusive: -23.4%.
With `CC(=O)Nc1ccc(S(=O)(=O)NC(CC(=O)NCCc2ccccc2)C(C)C)cc1` (stereo unspecified) the “activity change, negative = inhibition” value was inactive: 8.18%.
With `CC(=O)Nc1ccc(S(=O)(=O)N2CCN(CCCOc3ccccc3Cl)CC2)cc1` the activity change, negative = inhibition was inconclusive: -4.39%.
With `CCC(CC)NC(=O)/C=C/c1ccccc1Cl` the “activity change, negative = inhibition” value was inactive: -0.184%.
With `O=C(O)CCNC(=O)c1ccc(NC(=O)Cc2ccc(Cl)cc2)cc1` the “activity change, negative = inhibition” value was inactive: -16.7%.
For `O=c1cc(O)sc2ccccc12`, the “activity change, negative = inhibition” value was inactive: 0.0251%.
In the case of `CS(=O)(=O)N1N=C(c2cccs2)CC1c1ccccc1` (stereo unspecified), the “activity change, negative = inhibition” value is reported as inactive: -0.415%.
With `COc1cccc(-n2cc(-c3ccc(F)cc3)[nH]c2=S)c1` the “activity change, negative = inhibition” value was inactive: 7.39%.
For `FC(F)(F)c1cccc(-c2nc(COc3ccc(Cl)cc3Cl)no2)c1`, the Potency was inconclusive: 4.47 µM [rising, partial curve].
In the case of `Cn1c2ccccc2c(=O)c2cc(NCCCN3CCOCC3)ccc21`, the “activity change, negative = inhibition” value is reported as inactive: 2.48%.
With `COc1ccc(C(CNC(=O)Cc2ccccc2Cl)N2CCCCC2)cc1` (stereo unspecified) the activity change, negative = inhibition was inconclusive: 9.36%.
